In PubChem BioAssay (NCATS):
Inconclusive results, whose numbers are uncertain, are shown. Potencies beside an inconclusive call are fits to weak or partial responses and may not hold up.

Assay: qHTS Assay for Inhibitors of Fructose-1,6-bisphosphate Aldolase from Giardia Lamblia: Giardia lamblia growth inhibition (AID 2785); also: nearly all actives have a fitted effect of over 70% in size
Settings: Giardia lamblia trophozoite growth inhibition; series mostly up to 57.5 µM; active = well fitted inhibition curve with a large enough effect; inconclusive = small, poorly fitted or top-dose-only effect, or effect the other way; inactive = no such curve, though single readings can be large or run the other way
How it was run: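 Whole-parasite growth test: Giardia WB trophozoites in TYI-S-33 (pH 7.0), 100 per well, incubated 48 h at 37C with compound. ATP content was read by ATPlite luminescence.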
Potency is read from the fitted curve at half-maximal effect.

Potency, inconclusive:
COCc1nnc(NC(=O)c2ccc(S(=O)(=O)N3CCOCC3)cc2)o1 10 µM [inhibitor, partial curve, poor fit], Cc1ccc(C(=O)Nc2nnc(C3=COCCO3)o2)cc1C 35.5 µM [inhibitor, partial curve, poor fit], CCOC(=O)c1c(NC(=O)CN(C)C2CCN(C)CC2)sc(C(=O)Nc2ccccc2)c1C 39.8 µM [inhibitor, single point], COc1cc(CN2CCC(C(=O)NCC(C)(C)CN(C)C)CC2)ccc1OCc1ccccc1 89.1 µM [inhibitor, partial curve], O=C(NC(=S)Nc1ccccc1Cl)c1cncc(Br)c1 89.1 µM [inhibitor, partial curve], Cc1nnc(NC(=O)c2ccc(S(=O)(=O)N3CCc4ccccc4C3)cc2)o1 70.8 µM [inhibitor, partial curve, poor fit]
